Results reported in patent US20100260678A1.
These are yes or no findings as the source states them, for the method shown. Some results given as binding are weak or reduced against the parent protein; the word gives no strength.

Biological target: biotinylated full-length human IGF-I receptor, captured on streptavidin (human), P08069
Assay: ELISA on immobilized IGF-I receptor, washes of 1-2 days
Details: remark: other sources report otherwise

B1: murine anti-IGF-I receptor antibody EM164 (antibody, V domains shown)
VH: QVQLQQSGAELVKPGASVKLSCKASGYTFTSYWMHWVKQRPGQGLEWIGEINPSNGRTNYNEKFKRKATLTVDKSSSTAYMQLSSLTSEDSAVYYFARGRPDYYGSSKWYFDVWGAGTTVTVS
VL: DVLMTQTPLSLPVSLGDQASISCRSSQSIVHSNVNTYLEWYLQKPGQSPKLLIYKVSNRFSGVPDRFSGSGSGTDFTLRISRVEAEDLGIYYCFQGSHVPPTFGGGTKLEIKR
modifications: here or on the partner: biotinylated with PEO-maleimide-biotin reagent (sites not given)
With B1 the binding was “binds”.
